The target in assay [1] is T1, ATRAP-HA (UniProt Q6RW13).
T1 sequence: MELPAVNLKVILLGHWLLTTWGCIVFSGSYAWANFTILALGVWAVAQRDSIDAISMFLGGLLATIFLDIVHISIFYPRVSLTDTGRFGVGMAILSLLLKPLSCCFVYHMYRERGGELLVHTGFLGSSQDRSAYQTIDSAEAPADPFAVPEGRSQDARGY
Nature of the assay: co-IP; lysates from HEK293T cells expressing the indicated constructs; bound proteins analysed by immunoblot. A general note: In western blotting, separated proteins are transferred to a membrane and probed.

Assay [2] deals with T2, GST-AP4μ^160–453 (UniProt O00189).
T2 sequence: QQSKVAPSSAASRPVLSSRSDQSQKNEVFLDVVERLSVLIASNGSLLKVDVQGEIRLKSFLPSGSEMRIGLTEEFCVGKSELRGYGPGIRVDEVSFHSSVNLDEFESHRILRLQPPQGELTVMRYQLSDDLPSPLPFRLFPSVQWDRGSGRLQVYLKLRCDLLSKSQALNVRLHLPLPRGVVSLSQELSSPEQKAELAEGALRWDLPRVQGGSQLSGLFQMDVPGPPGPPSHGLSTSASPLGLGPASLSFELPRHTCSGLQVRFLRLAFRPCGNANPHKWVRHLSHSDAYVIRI
Nature of the assay: pull-down; purified GST-AP4μ 160–453 incubated with lysates from transfected HEK293T cells; bound proteins analysed by immunoblot, normalised to the 2% loading; only the target purified.

Results are given in words; binding and its absence hold for the method and conditions named. Binding seen in cells or lysates may run through a third protein. Some results given as binding are weak or reduced against the parent protein; the word gives no strength. Tags and fused reporters may be left off the sequences shown.

B1: AP4ε-GST (protein, UniProt Q9UPM8 1-1137)
chain: MSDIVEKTLTALPGLFLQNQPGGGPAAAKASFSSRLGSLVRGITALTSKHEEEKLIQQELSSLKATVSAPTTTLKMMKECMVRLIYCEMLGYDASFGYIHAIKLAQQGNLLEKRVGYLAVSLFLHESHELLLLLVNTVVKDLQSTNLVEVCMALTVVSQIFPCEMIPAVLPLIEDKLQHSKEIVRRKAVLALYKFHLIAPNQVQHIHIKFRKALCDRDVGVMAASLHIYLRMIKENSSGYKDLTGSFVTILKQVVGGKLPVEFNYHSVPAPWLQIQLLRILGLLGKDDQRTSELMYDVLDESLRRAELNHNVTYAILFECVHTVYSIYPKSELLEKAAKCIGKFVLSPKINLKYLGLKALTYVIQQDPTLALQHQMTIIECLDHPDPIIKRETLELLYRITNAQNITVIVQKMLEYLHQSKEEYVIVNLVGKIAELAEKYAPDNAWFIQTMNAVFSVGGDVMHPDIPNNFLRLLAEGFDDETEDQQLRLYAVQSYLTLLDMENVFYPQRFLQVMSWVLGEYSYLLDKETPEEVIAKLYKLLMNDSVSSETKAWLIAAVTKLTSQAHSSNTVERLIHEFTISLDTCMRQHAFELKHLHENVELMKSLLPVDRSCEDLVVDASLSFLDGFVAEGLSQGAAPYKPPHQRQEEKLSQEKVLNFEPYGLSFSSSGFTGRQSPAGISLGSDVSGNSAETGLKETNSLKLEGIKKLWGKEGYLPKKESKTGDESGALPVPQESIMENVDQAITKKDQSQVLTQSKEEKEKQLLASSLFVGLGSESTINLLGKADTVSHKFRRKSKVKEAKSGETTSTHNMTCSSFSSLSNVAYEDDYYSNTLHDTGDKELKKFSLTSELLDSESLTELPLVEKFSYCSLSTPSLFANNNMEIFHPPQSTAASVAKESSLASSFLEETTEYIHSNAMEVCNNETISVSSYKIWKDDCLLMVWSVTNKSGLELKSADLEIFPAENFKVTEQPGCCLPVMEAESTKSFQYSVQIEKPFTEGNLTGFISYHMMDTHSAQLEFSVNLSLLDFIRPLKISSDDFGKLWLSFANDVKQNVKMSESQAALPSALKTLQQKLRLHIIEIIGNEGLLACQLLPSIPCLLHCRVHADVLALWFRSSCSTLPDYLLYQCQKVMEGS
In the case of B1, the binding entry in assay [1] is “binds”.

B2: ATRAP-HA (protein, UniProt Q6RW13 1-159)
chain: T1 sequence
Turning to B2, in assay [2], the binding result is given as “binds”.

The record behind these values is paper PMC12519218 (2025).
